Experimental data from patent publication US7897568B2, “Compositions for treatment of cancer” (priority 2006, dated 2011).
Results are given in words; binding and its absence hold for the method and conditions named. In cells and extracts the contact can be indirect. Some entries that bind do so weakly or less than the wild type. Where a sequence is shown, tags or fusion partners need not be part of it.

Chains of the proteins cited; added tags and fusions are not shown. Lines headed by an entry give the natural chain unless they say otherwise; changes in a name come on top.
UniProt O76070: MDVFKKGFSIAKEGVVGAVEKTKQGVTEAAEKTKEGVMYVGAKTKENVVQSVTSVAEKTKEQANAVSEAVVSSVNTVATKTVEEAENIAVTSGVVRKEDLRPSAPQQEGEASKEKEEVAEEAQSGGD

Experiments:
[1] = biological target: SNCG expressed in cells (MCF7-SNCG, T47D, or COS7 transfected with pCI-SNCG) (UniProt O76070); assay: co-IP with anti-SNCG antibody from transfected COS7 cells, western blot with anti-GFP
[2] = biological target: SNCG expressed in cells (MCF7-SNCG, T47D, or COS7 transfected with pCI-SNCG) (UniProt O76070); assay: co-IP experiments of FIGS. 5C and 5D
[3] = biological target: SNCG expressed in cells (MCF7-SNCG, T47D, or COS7 transfected with pCI-SNCG) (UniProt O76070); assay: co-localization and co-IP with anti-SNCG antibody in MCF7-SNCG cells
[4] = biological target: SNCG expressed in cells (MCF7-SNCG, T47D, or COS7 transfected with pCI-SNCG) (UniProt O76070); assay: co-IP with anti-SNCG antibody, western blot with anti-GFP

- binding [1]: binds
- binding [2]: binds
- binding [3]: binds
- binding [4]: binds
Binder: KGNSALHVASQHGHLGCIQTLVRYGANVTMQNHG (peptide, not shown: large carriers) [enhanced green fluorescent protein (EGFP)-ANK fusion protein]
